Values are relative to the signal before dosing, not to a vehicle control; the signal also falls without drug.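 Labels refer to human fibroblasts, largely primary: uterine (C12385, HUF), lung (H6013), bone (Hs27A), adrenal (HADF), skin (WS1), plus mammary HMF and breast cancer-associated Hs343T. Cancer lines are basal-like or mesenchymal-like triple-negative breast cancer. The paper counts as hits responses shifting over 3x the replicate standard deviation. The tissue of the other fibroblasts is not given here.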
Tested on: MDAMB468
Assay: relative JC-1 red fluorescence (viability) vs pre-drug, coculture with fibroblast (fraction); higher = more viable cancer cells
Procedure: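 JC-1 labelled TNBC cells cocultured 1:1 (1,500 cells each) with CellTrace Violet stained primary or stromal fibroblasts in 384-well plates in FluoroBrite medium, treated with one of 42 anticancer drugs at 0.1, 1, 10 or 100 uM. JC-1 red fluorescence (mitochondrial integrity in cancer cells only) was read by plate reader every 8 h for 72 h. Values are normalised to each well's pre-drug value. The stock of one drug was tenfold lower, so its dose labels may be too high.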

CC[C@]1(O)C[C@@H]2CN(CCc3c([nH]c4ccccc34)[C@@](C(=O)OC)(c3cc4c(cc3OC)N(C)[C@H]3[C@@](O)(C(=O)OC)[C@H](OC(C)=O)[C@]5(CC)C=CCN6CC[C@]43[C@@H]65)C2)C1 [Vinblastine]
relative JC-1 red fluorescence
Details	8 h	16 h	24 h	32 h	40 h	48 h	56 h	64 h	72 h
0.1 µM, coculture fibroblast: C12385	0.8546	0.8206	0.784	0.739	0.6944	0.677	0.6366	0.6155	0.6097
0.1 µM, coculture fibroblast: H6013	0.8651	0.8854	0.8561	0.854	0.827	0.837	0.815	0.811	0.759
0.1 µM, coculture fibroblast: H6019	0.831	0.837	0.8523	0.842	0.834	0.84	0.814	0.816	0.828
0.1 µM, coculture fibroblast: H6076	0.9191	0.947	0.9564	0.9474	0.89	0.871	0.8323	0.8093	0.84216
0.1 µM, coculture fibroblast: H6231	0.83	0.946	0.856	0.837	0.797	0.764	0.704	0.68	0.662
0.1 µM, coculture fibroblast: HADF	0.8512	0.847	0.786	0.784	0.725	0.707	0.667	0.653	0.623
0.1 µM, coculture fibroblast: HCFa	0.853	0.8467	0.7837	0.7375	0.6762	0.665	0.614	0.579	0.5321
0.1 µM, coculture fibroblast: HCPF	0.908	0.964	0.949	0.9596	0.8883	0.8641	0.797	0.78	0.765
0.1 µM, coculture fibroblast: HHSteC	0.89	0.88	0.853	0.80632	0.776	0.777	0.718	0.693	0.645
0.1 µM, coculture fibroblast: HMF	0.854	0.912	0.955	0.94711	0.878	0.859	0.8042	0.7772	0.746
0.1 µM, coculture fibroblast: HPFa	0.974	0.926	0.901	0.858	0.828	0.834	0.775	0.757	0.688
0.1 µM, coculture fibroblast: HUF	0.91442	0.8465	0.79	0.723	0.677	0.653	0.61	0.593	0.57
0.1 µM, coculture fibroblast: Hs5	0.919	0.813	0.859	0.9852	0.9228	0.886	0.848	0.799	0.809
0.1 µM, coculture fibroblast: Hs27A	0.8969	0.8798	0.8306	0.832	0.783	0.783	0.747	0.729	0.686
0.1 µM, coculture fibroblast: Hs343T	0.8721	0.951	0.911	0.8922	0.821	0.799	0.761	0.741	0.721
0.1 µM, coculture fibroblast: WS1	0.85	0.8062	0.7666	0.715	0.673	0.6493	0.62052	0.601	0.6
1 µM, coculture fibroblast: C12385	0.886	0.852	0.864	0.832	0.808	0.818	0.788	0.791	0.799
1 µM, coculture fibroblast: H6013	0.907	0.9063	0.87	0.868	0.849	0.858	0.838	0.836	0.796
1 µM, coculture fibroblast: H6019	0.815	0.8323	0.821	0.8	0.795	0.809	0.787	0.78	0.775
1 µM, coculture fibroblast: H6076	0.927	0.879	0.838	0.867	0.94	0.867	0.964	0.98	0.782
1 µM, coculture fibroblast: H6231	0.875	0.978	0.9218	0.9137	0.874	0.855	0.807	0.781	0.7636
1 µM, coculture fibroblast: HADF	0.886	0.8636	0.8403	0.839	0.813	0.818	0.776	0.774	0.733
1 µM, coculture fibroblast: HCFa	0.862	0.884	0.845	0.846	0.801	0.804	0.757	0.7314	0.6834
1 µM, coculture fibroblast: HCPF	0.887	0.929	0.928	0.944	0.879	0.866	0.826	0.807	0.791
1 µM, coculture fibroblast: HHSteC	0.8818	0.911	0.89	0.87	0.854	0.869	0.808	0.786	0.73
1 µM, coculture fibroblast: HMF	0.8491	0.949	0.925	0.9214	0.862	0.857	0.8088	0.7904	0.78249
1 µM, coculture fibroblast: HPFa	0.917	0.891	0.87	0.814	0.78	0.781	0.724	0.706	0.64
1 µM, coculture fibroblast: HUF	0.945	0.891	0.854	0.795	0.76	0.743	0.698	0.68	0.666
1 µM, coculture fibroblast: Hs5	0.961	0.955	0.977	0.92	0.925	0.916	0.896	0.873	0.911
1 µM, coculture fibroblast: Hs27A	0.9006	0.8837	0.857	0.87482	0.8381	0.83654	0.821	0.811	0.763
1 µM, coculture fibroblast: Hs343T	0.843	0.924	0.926	0.926	0.856	0.848	0.811	0.797	0.795
1 µM, coculture fibroblast: WS1	0.851	0.82	0.8	0.781	0.755	0.743	0.73	0.718	0.715

Source: the supplement of paper PMC6078165
